# Some of the results follow.
# By UniProt entry, the sequences of proteins in these tests, tags left out. Where a name states a change or a piece, a line headed by the entry shows the natural chain unless it says otherwise.
# UniProt P30154, whole entry, looked up: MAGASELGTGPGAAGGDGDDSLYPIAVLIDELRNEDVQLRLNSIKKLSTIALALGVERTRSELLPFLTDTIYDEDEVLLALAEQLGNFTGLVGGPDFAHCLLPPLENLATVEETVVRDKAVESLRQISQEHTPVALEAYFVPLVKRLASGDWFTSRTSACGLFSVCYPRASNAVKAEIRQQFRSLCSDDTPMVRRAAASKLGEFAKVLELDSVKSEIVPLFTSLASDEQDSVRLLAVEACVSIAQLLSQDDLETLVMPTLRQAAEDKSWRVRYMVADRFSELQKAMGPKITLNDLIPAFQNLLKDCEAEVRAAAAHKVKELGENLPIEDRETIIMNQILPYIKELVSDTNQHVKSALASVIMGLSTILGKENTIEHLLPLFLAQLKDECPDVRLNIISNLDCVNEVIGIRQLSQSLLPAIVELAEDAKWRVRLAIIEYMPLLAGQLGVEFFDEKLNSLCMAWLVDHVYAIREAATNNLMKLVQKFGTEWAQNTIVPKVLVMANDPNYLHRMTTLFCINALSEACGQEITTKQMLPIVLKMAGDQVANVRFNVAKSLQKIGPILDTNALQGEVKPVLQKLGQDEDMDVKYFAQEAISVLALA
# UniProt Q8WUA2: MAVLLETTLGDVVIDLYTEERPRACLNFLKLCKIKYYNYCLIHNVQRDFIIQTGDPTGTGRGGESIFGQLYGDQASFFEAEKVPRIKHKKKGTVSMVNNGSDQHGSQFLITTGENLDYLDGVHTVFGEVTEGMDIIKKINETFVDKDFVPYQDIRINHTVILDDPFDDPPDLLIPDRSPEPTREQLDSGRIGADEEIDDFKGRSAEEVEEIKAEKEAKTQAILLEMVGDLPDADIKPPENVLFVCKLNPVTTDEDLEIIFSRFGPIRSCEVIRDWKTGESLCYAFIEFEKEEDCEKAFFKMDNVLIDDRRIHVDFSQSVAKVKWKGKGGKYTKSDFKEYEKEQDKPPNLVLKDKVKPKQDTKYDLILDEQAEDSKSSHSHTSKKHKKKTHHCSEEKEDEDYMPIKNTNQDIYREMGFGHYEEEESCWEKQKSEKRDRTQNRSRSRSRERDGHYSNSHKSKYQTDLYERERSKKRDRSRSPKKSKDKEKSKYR
# UniProt P30153, whole entry, looked up: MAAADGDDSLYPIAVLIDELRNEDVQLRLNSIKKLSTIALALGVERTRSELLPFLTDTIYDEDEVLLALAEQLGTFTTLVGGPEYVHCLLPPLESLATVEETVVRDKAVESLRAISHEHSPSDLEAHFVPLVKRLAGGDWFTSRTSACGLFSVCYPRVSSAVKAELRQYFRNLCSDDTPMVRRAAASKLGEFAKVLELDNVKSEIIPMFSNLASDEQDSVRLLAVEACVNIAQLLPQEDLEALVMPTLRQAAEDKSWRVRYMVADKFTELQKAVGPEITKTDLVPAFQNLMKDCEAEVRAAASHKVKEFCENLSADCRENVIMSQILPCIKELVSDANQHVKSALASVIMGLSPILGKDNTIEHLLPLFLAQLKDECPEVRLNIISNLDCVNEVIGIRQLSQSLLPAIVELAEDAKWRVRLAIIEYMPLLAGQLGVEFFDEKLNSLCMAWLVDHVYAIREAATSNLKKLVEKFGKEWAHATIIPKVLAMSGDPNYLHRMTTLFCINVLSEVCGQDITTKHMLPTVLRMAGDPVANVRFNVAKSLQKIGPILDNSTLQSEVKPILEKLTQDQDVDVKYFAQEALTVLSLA
# UniProt Q9NY27: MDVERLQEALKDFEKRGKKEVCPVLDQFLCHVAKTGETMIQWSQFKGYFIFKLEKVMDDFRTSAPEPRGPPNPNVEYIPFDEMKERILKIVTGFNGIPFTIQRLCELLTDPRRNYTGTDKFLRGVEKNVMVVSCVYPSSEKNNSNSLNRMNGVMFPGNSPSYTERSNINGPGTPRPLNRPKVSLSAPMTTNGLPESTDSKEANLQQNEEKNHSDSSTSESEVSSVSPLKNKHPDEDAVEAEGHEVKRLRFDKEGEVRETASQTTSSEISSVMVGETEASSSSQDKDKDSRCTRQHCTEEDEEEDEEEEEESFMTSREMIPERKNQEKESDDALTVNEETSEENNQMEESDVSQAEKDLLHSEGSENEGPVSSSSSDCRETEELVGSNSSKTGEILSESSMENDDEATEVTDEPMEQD
# UniProt Q86WC6: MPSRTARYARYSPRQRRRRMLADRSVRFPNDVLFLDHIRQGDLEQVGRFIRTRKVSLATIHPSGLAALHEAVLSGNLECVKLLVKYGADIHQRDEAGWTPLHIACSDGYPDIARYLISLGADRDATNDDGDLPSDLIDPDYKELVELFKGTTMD
# UniProt O95685: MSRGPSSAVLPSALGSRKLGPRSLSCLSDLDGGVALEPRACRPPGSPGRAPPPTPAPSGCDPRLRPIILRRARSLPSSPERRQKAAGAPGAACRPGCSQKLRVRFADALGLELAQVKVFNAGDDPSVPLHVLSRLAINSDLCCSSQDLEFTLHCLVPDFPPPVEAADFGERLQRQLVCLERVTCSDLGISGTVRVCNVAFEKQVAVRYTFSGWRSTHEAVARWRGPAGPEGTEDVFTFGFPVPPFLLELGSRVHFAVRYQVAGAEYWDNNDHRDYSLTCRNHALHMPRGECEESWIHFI
# UniProt P50336: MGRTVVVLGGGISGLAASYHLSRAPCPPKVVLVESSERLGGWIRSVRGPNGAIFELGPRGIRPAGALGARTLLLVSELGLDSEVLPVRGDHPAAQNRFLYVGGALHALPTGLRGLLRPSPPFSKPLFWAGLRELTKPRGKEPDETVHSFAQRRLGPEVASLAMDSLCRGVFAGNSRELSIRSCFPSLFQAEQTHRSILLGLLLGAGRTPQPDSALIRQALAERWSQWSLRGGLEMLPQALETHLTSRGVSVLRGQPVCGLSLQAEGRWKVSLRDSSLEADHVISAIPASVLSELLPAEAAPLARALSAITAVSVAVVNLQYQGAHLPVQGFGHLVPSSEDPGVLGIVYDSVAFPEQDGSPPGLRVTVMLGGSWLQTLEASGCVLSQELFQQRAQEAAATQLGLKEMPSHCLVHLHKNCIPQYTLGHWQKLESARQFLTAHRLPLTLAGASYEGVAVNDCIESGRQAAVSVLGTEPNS
# UniProt Q8TF05: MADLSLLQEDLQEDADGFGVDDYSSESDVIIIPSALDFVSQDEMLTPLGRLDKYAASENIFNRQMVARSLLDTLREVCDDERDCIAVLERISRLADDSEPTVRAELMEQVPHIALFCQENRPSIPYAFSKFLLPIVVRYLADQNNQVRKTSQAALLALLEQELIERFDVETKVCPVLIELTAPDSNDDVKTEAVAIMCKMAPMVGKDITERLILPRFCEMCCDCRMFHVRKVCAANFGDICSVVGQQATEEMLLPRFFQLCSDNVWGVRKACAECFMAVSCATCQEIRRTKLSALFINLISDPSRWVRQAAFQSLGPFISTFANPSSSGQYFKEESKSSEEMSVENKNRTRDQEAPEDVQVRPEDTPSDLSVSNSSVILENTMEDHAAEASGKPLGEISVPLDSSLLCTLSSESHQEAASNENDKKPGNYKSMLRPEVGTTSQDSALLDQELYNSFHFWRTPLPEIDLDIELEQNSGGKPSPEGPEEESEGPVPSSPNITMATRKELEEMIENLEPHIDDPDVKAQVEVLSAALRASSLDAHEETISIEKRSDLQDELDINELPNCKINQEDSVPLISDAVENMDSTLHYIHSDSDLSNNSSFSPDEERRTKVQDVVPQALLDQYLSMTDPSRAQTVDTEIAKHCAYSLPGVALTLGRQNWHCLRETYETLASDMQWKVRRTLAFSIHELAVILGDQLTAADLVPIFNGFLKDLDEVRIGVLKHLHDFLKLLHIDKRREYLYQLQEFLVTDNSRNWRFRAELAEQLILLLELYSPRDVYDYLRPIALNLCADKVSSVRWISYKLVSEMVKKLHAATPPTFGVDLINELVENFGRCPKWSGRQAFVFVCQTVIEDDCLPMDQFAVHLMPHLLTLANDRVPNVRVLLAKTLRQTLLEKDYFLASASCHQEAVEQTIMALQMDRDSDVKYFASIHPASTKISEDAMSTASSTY
# UniProt Q6ZMI0: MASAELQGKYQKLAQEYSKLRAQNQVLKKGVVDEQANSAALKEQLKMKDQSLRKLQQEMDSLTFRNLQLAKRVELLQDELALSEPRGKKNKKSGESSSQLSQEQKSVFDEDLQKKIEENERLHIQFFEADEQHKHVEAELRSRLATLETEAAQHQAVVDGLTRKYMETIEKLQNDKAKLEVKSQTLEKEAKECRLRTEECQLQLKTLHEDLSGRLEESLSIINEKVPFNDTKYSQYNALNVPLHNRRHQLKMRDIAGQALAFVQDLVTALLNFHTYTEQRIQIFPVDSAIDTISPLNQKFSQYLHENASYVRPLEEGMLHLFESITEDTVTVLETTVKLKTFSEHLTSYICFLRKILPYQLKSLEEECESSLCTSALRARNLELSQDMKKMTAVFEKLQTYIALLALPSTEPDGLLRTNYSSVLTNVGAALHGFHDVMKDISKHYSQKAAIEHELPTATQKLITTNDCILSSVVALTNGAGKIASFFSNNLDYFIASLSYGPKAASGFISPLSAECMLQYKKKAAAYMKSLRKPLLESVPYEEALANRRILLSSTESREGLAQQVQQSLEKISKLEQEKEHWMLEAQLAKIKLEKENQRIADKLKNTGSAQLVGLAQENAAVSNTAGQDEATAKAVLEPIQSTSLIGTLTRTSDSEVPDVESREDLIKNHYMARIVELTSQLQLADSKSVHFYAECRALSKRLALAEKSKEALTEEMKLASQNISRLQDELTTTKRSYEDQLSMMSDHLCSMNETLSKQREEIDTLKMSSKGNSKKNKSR
# UniProt P53041: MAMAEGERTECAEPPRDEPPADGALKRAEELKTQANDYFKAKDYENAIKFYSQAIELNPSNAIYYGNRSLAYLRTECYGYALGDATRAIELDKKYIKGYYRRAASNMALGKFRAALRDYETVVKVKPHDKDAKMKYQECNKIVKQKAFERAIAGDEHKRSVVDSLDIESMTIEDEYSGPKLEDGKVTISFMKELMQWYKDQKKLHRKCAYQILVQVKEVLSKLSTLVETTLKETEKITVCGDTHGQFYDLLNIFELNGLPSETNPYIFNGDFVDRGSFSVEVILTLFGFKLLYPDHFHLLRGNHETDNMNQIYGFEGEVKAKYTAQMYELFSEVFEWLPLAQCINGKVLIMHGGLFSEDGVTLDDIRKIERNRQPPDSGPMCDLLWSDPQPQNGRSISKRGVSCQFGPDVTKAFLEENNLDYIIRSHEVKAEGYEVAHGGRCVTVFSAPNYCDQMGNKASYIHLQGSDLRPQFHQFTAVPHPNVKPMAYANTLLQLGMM
# UniProt P36873, whole entry, looked up: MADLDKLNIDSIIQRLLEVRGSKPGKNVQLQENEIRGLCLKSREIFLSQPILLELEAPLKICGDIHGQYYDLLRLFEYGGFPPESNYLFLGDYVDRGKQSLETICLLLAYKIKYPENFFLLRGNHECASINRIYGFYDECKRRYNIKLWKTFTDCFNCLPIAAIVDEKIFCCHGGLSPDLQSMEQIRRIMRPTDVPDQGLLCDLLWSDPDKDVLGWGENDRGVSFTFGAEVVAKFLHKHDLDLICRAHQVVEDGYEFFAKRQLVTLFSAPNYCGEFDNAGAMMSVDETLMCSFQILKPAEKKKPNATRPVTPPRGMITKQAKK
# UniProt Q5H9R7: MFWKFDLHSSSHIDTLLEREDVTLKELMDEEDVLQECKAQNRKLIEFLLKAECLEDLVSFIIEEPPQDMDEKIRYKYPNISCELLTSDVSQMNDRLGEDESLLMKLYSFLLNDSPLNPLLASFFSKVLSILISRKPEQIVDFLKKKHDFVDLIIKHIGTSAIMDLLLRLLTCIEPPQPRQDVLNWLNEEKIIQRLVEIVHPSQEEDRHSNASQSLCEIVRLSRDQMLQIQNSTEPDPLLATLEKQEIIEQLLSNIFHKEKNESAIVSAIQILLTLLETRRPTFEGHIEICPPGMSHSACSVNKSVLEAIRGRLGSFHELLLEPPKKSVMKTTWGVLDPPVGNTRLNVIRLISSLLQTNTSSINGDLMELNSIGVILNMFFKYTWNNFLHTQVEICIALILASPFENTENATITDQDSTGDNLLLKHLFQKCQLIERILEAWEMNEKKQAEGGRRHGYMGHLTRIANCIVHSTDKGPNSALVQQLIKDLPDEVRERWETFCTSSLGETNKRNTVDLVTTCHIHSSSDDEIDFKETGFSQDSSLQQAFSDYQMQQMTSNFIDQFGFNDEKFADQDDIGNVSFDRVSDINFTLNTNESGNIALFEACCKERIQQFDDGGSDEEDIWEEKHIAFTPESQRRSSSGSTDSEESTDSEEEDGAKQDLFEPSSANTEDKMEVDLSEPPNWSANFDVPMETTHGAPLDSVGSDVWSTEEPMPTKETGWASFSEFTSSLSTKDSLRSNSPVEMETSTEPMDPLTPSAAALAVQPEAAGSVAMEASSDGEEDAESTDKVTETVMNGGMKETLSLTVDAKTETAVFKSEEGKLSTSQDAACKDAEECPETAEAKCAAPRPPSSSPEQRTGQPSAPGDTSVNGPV
# Compound: CC1Cc2ccccc2N1C(=O)C1CCCN(C1)C(=O)CCl (mixture of isomers) [TRIM25 ligand 11 (diastereomer mixture)]
# Assay: probe-labelled cysteine peptide fold change vs DMSO (competition) (log2 fold change); higher = less target engagement (more negative = stronger competition)
# Conditions: THP-1, incubation time: 4 h
# 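Further: competitive chemoproteomic profiling in live THP-1 cells with an iodoacetamide desthiobiotin (IA-DTB) probe, comparing probe-labelled peptide intensities in compound-treated cells against DMSO-treated controls.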
Target,probe-labelled cysteine peptide fold change (10 µM),probe-labelled cysteine peptide fold change (50 µM)
PPP2R1B_P30154_524_MTTLFCINALSEACGQEITTK (UniProt P30154),0.0817,0.301
PPP1R8_Q12972_58+67_NPDLCDFTIDHQSCSR (UniProt Q12972),0.219,-0.221
PPIL4_Q8WUA2_245_TQAILLEMVGDLPDADIKPPENVLFVCK (UniProt Q8WUA2),0.115,0.268
PRDX5_P30044_100_KGVLFGVPGAFTPGCSK (UniProt P30044),-0.0954,-0.177
PPP2R1A_P30153_504_MTTLFCINVLSEVCGQDITTK (UniProt P30153),-0.121,0.114
PPP4R2_Q9NY27_296_QHCTEEDEEEDEEEEEESFMTSR (UniProt Q9NY27),-0.208,-0.445
PPP1R27_Q86WC6_79_VSLATIHPSGLAALHEAVLSGNLECVK (UniProt Q86WC6),0.024,-0.236
PPP1R3D_O95685_279_DYSLTCR (UniProt O95685),0.48,0.213
PPM1B_O75688_149_HIYFINCGDSR (UniProt O75688),-0.0973,-0.0801
PRAM1_Q96QH2_629_RGEILEVIEFTSNEEMLCR (UniProt Q96QH2),0.103,0.36
PPP1R9B_Q96SB3_270_ERCPAGQQPPQHR (UniProt Q96SB3),-0.157,-0.167
PPOX_P50336_258_GQPVCGLSLQAEGR (UniProt P50336),-0.0354,-0.0716
PPP4R1_Q8TF05_663_QNWHCLR (UniProt Q8TF05),0.125,0.0913
PPP1R3D_O95685_291_GECEESWIHFI (UniProt O95685),0.0885,-0.0109
PPP4R3B_Q5MIZ7_90_AGCDEIWEK (UniProt Q5MIZ7),0.219,0.316
PPP1R3D_O95685_41_ACRPPGSPGR (UniProt O95685),0.000234,-0.127
PPOX_P50336_167_LGPEVASLAMDSLCR (UniProt P50336),0.0529,0.0999
PPP1R21_Q6ZMI0_516_AASGFISPLSAECMLQYK (UniProt Q6ZMI0),0.107,-0.0801
PPP5C_P53041_208_CAYQILVQVK (UniProt P53041),0.302,-0.0332

Target,probe-labelled cysteine peptide fold change (10 µM),probe-labelled cysteine peptide fold change (50 µM)
PPP1CC_P36873_245_FLHKHDLDLICR (UniProt P36873),-0.544,-0.301
PPT1_P50897_46_ALQHLDPPAPLPLVIWHGMGDSCCNPLSMGAIKK (UniProt P50897),-0.0224,-0.262
PPP1CB_P62140_201_IMRPTDVPDTGLLCDLLWSDPDKDVQGWGENDR (UniProt P62140),0.138,-0.226
PREB_Q9HCU5_280_QPPPCYLTAWDGSNFLPLR (UniProt Q9HCU5),0.121,0.0577
PREP_P48147_410_DTEIFYQFTSFLSPGIIYHCDLTK (UniProt P48147),0.142,0.273
PRDX2_P32119_70_KLGCEVLGVSVDSQFTHLAWINTPR (UniProt P32119),0.0786,-0.0312
PPP1CC_P36873_202_PTDVPDQGLLCDLLWSDPDK (UniProt P36873),-0.0232,0.0737
PPM1L_Q5SGD2_340_GCPDNITVMVVK (UniProt Q5SGD2),-0.0116,-0.0742
PPP4R1_Q8TF05_117_AELMEQVPHIALFCQENRPSIPYAFSK (UniProt Q8TF05),-0.016,0.0192
PPIP5K2_O43314_306_QTVCGFDLLR (UniProt O43314),-0.0383,0.256
PPP2R5A_Q15172_72_DATSNEQQELFCQK (UniProt Q15172),0.0295,0.0832
PPP5C_P53041_404_RGVSCQFGPDVTK (UniProt P53041),0.046,0.0884
PPP6R3_Q5H9R7_844_CAAPRPPSSSPEQR (UniProt Q5H9R7),0.00367,-0.0138
PRC1_O43663_531_LPPSGSKPVAASTCSGK (UniProt O43663),0.00194,0.0522
PREPL_Q4J6C6_538_LNGLADLEACIK (UniProt Q4J6C6),0.00302,0.132
PPP2R1B_P30154_516_MTTLFCINALSEACGQEITTK (UniProt P30154),0.143,0.0485
PPIL4_Q8WUA2_40_YYNYCLIHNVQR (UniProt Q8WUA2),0.242,0.263
PPP4R2_Q9NY27_105_LCELLTDPR (UniProt Q9NY27),0.118,0.0827
PPP6R3_Q5H9R7_37_ELMDEEDVLQECK (UniProt Q5H9R7),-0.0583,-0.131

# Single records, from the list above. Order of values: probe-labelled cysteine peptide fold change (10 µM) | probe-labelled cysteine peptide fold change (50 µM)
# PPP4R2_Q9NY27_296_QHCTEEDEEEDEEEEEESFMTSR (UniProt Q9NY27) is listed as -0.208 | -0.445
# PPP1R27_Q86WC6_79_VSLATIHPSGLAALHEAVLSGNLECVK (UniProt Q86WC6) is listed as 0.024 | -0.236
